In the supplement of paper PMC10373366:
Counter-ions that a name gives are not always drawn. This is one part of the list. Many values rest on one well or one pass, so single values are uncertain.

System: patient-derived ovarian cancer cells (PDC)
Assay: cell growth inhibition ratio vs untreated control (CCK8); higher = stronger inhibition of cell viability
Settings: 10 µM; 48 h
Procedure: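 Natural product library (Topscience) screened at 10 µM final concentration for 48 h on ovarian cancer A2780 cells and patient-derived ovarian cancer cells (PDC) in 96-well plates; viability read by CCK8 and reported as inhibition ratio (%) relative to untreated control. Single-dose primary screen.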

Row | Compound | cell growth inhibition ratio [%]
1 | CC(=O)OC/C=C(C)/C=C/C=C(C)/C=C/C1=C(C)CCCC1(C)C [Retinyl acetate] | 14.9
2 | C[C@H]1[C@H](C)CC[C@]2(C(=O)O)CC[C@]3(C)C(=CC[C@@H]4[C@@]5(C)C[C@@H](O)[C@H](O)[C@@](C)(CO)[C@@H]5CC[C@]43C)[C@H]12 [Asiatic acid] | -12.2
3 | CC(=O)O[C@H]1C(=O)[C@@]2(C)[C@H]([C@H](OC(=O)c3ccccc3)[C@]3(O)C[C@H](OC(=O)[C@H](O)[C@@H](NC(=O)c4ccccc4)c4ccccc4)C(C)=C1C3(C)C)[C@]1(OC(C)=O)CO[C@@H]1C[C@@H]2O [Paclitaxel] | 71.7
4 | COc1cc2c(c(OC)c1OC)-c1c(cc3c(c1OC)OCO3)CC(C)C(C)C2 (stereo not given) [Schizandrin B] | 0.141
5 | COc1cc2c(c(OC)c1OC)-c1c(cc(OC)c(OC)c1OC)CC(C)C(C)C2 (stereo not given) [Schizandrin A] | -1.53
6 | COc1ccc([C@@H]2OC[C@H]3[C@@H]2CO[C@@H]3c2ccc(O[C@@H]3O[C@H](CO)[C@@H](O)[C@H](O)[C@H]3O)c(OC)c2)cc1OC [Forsythin] | -0.169
7 | CC(C)(O)[C@H]1CC[C@@](C)(C2[C@@H](O)C[C@@]3(C)[C@@H]4C[C@H](O)C5C(C)(C)[C@@H](O)CCC56CC46CC[C@]23C)O1 (stereo not given in full) [Cycloastragenol] | 15.7
8 | COc1cc2ccc(=O)oc2c(O[C@@H]2O[C@H](CO)[C@@H](O)[C@H](O)[C@H]2O)c1O [Fraxin] | 5.93
9 | CC1CCC(C(C)C)C(O)C1 (racemic) [DL-Menthol] | -3.84
10 | COC(=O)C=Cc1ccc(O)cc1 [Methyl 4-hydroxycinnamate] | 13.7
11 | COc1c2c(cc3oc(CO)cc(=O)c13)O[C@H](C(C)(C)O)C2 [Cimifugin] | -10.7
12 | COc1ccc2c(c1OC)C(=O)O[C@@H]2[C@H]1c2c(cc3c(c2OC)OCO3)CCN1C [Noscapine hydrochloride] | 7.79
13 | CO[C@H]1C[C@@H]2CC[C@@H](C)[C@@](O)(O2)C(=O)C(=O)N2CCCC[C@H]2C(=O)O[C@H]([C@H](C)C[C@@H]2CC[C@@H](O)[C@H](OC)C2)CC(=O)[C@H](C)/C=C(\C)[C@@H](O)[C@@H](OC)C(=O)[C@H](C)C[C@H](C)/C=C/C=C/C=C/1C [Rapamycin (Sirolimus)] | 21.9
14 | CCCCC[C@H](O)CC(=O)CCc1ccc(O)c(OC)c1 [6-Gingerol] | -1.7
15 | OCc1c[nH]c2ccccc12 [Indole-3-carbinol] | -4.15
16 | CC1(C)CC[C@]2(C(=O)O)[C@H](O)C[C@]3(C)C(=CC[C@@H]4[C@@]5(C)CC[C@H](O)C(C)(C)[C@@H]5CC[C@]43C)[C@H]2C1 [Echinocystic acid] | 15
17 | CO[C@H]1[C@H](O)[C@@H](O)[C@@H](O)[C@H](O)[C@@H]1O [D-Pinitol] | -13.2
18 | COc1ccc2cc1Oc1ccc(cc1)C[C@H]1c3c(cc4c(c3Oc3cc5c(cc3OC)CCN(C)[C@@H]5C2)OCO4)CCN1C [Cepharanthine] | 37
19 | CC1(C)CC[C@]2(C(=O)O)CC[C@]3(C)[C@H](C(=O)C=C4[C@@]5(C)C=C(C#N)C(=O)C(C)(C)[C@@H]5CC[C@]43C)[C@@H]2C1 [CDDO(Bardoxolone)] | 85.5
20 | C[C@]12CCC(=O)C=C1CC[C@@H]1[C@@H]2CC[C@@]2(C)[C@H]1CC[C@]2(O)C(=O)CO [Cortodoxone] | -11.6

Pulled by structure from above:
Row | Compound | cell growth inhibition ratio [%]
3 | CC(=O)O[C@H]1C(=O)[C@@]2(C)[C@H]([C@H](OC(=O)c3ccccc3)[C@]3(O)C[C@H](OC(=O)[C@H](O)[C@@H](NC(=O)c4ccccc4)c4ccccc4)C(C)=C1C3(C)C)[C@]1(OC(C)=O)CO[C@@H]1C[C@@H]2O [Paclitaxel] | 71.7
1 | CC(=O)OC/C=C(C)/C=C/C=C(C)/C=C/C1=C(C)CCCC1(C)C [Retinyl acetate] | 14.9
